Assay results published in patent US20230084927A1, “GLUCOSE UPTAKE INHIBITORS AND USES THEREOF” (METABOMED LTD., priority 2019, published 2023).
For at least one compound, name, drawing or mass did not settle the structure.

Key:
[1] = test system: lactate secretion (glycolysis) in SDH-KO cells; assay: Lactate labeling from (U-13C)-Glucose, lactate secretion to the medium; assay type: cell-based; settings: 30 min, LC-MS
[2] = molecular target: T1, Hexokinase 1 (HK1) (Homo sapiens, UniProt P19367); assay: HK1 assay with recombinant protein (ADP-Glo); assay type: biochemical; settings: recombinant HK1, highest concentration of 100 uM
T1 sequence (P19367 1-917): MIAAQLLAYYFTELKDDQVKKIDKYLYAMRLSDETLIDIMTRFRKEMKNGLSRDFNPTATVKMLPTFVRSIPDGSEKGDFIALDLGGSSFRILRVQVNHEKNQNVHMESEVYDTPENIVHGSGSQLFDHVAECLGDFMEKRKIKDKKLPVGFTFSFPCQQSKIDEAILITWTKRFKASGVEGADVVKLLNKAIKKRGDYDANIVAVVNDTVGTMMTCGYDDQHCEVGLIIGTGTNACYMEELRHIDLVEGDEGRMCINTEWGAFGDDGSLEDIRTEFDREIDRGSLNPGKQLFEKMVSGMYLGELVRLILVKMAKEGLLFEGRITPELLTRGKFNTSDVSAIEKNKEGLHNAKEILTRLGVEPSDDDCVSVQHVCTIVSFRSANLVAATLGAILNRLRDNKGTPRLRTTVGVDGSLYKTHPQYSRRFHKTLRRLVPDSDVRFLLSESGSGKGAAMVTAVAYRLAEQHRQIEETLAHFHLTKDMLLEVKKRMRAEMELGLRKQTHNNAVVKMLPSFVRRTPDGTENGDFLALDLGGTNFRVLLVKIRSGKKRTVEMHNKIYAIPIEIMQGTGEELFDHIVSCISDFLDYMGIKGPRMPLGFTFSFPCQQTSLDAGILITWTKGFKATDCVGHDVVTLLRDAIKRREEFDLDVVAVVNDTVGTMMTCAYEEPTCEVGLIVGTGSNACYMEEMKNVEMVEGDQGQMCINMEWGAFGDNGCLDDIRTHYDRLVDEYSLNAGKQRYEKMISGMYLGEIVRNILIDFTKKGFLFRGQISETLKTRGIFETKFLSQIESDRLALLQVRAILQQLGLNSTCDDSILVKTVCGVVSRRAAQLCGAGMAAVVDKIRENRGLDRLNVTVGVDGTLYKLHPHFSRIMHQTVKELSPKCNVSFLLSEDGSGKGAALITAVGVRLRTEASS

[3] = molecular target: T2, Hexokinase 2 (HK2) (Homo sapiens, UniProt P52789); assay: HK2 assay with recombinant protein (ADP-Glo); assay type: biochemical; settings: recombinant HK2, highest concentration of 100 uM
T2 sequence (P52789 1-917): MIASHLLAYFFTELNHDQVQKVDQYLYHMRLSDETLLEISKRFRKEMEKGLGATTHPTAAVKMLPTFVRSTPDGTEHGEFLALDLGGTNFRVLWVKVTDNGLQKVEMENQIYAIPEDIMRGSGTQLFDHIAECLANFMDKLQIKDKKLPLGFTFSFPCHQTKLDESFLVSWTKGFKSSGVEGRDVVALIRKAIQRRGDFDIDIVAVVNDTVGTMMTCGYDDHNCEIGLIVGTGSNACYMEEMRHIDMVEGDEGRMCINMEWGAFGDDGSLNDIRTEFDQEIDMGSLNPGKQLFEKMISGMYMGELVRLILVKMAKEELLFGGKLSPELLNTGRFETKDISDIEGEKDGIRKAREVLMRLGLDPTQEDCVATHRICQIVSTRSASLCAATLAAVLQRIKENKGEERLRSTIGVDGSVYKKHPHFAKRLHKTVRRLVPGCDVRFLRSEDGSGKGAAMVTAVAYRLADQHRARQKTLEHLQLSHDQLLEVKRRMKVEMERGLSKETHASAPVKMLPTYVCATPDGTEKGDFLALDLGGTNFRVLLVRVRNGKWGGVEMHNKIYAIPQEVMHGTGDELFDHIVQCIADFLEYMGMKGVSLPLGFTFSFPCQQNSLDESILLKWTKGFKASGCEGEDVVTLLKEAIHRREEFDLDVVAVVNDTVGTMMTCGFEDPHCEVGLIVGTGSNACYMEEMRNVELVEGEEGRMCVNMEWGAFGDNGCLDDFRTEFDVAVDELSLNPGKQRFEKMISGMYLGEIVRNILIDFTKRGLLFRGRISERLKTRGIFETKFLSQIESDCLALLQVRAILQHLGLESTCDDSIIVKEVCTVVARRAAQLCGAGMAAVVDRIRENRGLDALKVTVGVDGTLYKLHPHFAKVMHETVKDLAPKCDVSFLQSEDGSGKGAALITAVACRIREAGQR

[4] = molecular target: T3, GluT1 (glucose-starved DLD1 cells) (Homo sapiens, UniProt P11166); assay: Glucose uptake assay in DLD1 cells with different concentrations of glucose; assay type: cell-based; settings: different glucose levels, IC50 increased with higher glucose
T3 construct: DLD1 cells for GLUT1 transporter; endogenous in cells; host or cells: DLD1 (DLD1-WT)
T3 sequence (P11166 1-492): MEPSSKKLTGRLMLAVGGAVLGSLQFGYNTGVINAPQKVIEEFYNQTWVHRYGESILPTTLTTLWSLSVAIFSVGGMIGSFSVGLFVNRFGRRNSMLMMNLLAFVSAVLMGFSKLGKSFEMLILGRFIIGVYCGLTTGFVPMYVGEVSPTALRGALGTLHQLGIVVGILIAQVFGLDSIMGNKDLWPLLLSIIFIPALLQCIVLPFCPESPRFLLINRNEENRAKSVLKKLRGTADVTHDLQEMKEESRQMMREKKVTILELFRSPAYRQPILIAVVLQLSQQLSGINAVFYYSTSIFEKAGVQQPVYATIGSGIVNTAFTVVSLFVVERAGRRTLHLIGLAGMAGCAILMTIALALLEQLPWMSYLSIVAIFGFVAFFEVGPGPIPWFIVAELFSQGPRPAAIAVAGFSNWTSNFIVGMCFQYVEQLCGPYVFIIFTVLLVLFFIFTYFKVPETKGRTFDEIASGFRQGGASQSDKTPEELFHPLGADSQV

[5] = test system: glucose uptake in SDH-KO and SDH-KO Res145 cells; assay: Glucose uptake IC50 in SDH-KO cells resistant to Compound 145; assay type: cell-based; settings: SDH-KO Res145 (resistant to 20 nM of Compound 145) vs SDH-KO

CC1(C)Cc2nc3sc4c(NCCc5ccc6[nH]cnc6c5)ncnc4c3cc2CO1 [Compound 145]
secretion of lactate to the medium (Lactate m+3) [1]: inhibits
HK1 activity [2]: didn't inhibit
HK2 activity [3]: didn't inhibit
mode of inhibition of Glucose uptake [4]: Glucose-competitive inhibitor
Glucose uptake's IC50 in resistant cells compare to regular SDH-KO cells [5]: Seven-fold higher
